These results are taken from PMC8898369.

By UniProt entry, the sequences of proteins in these tests, tags left out. Residues count along the entry.
UniProt P16070, residues 21-742: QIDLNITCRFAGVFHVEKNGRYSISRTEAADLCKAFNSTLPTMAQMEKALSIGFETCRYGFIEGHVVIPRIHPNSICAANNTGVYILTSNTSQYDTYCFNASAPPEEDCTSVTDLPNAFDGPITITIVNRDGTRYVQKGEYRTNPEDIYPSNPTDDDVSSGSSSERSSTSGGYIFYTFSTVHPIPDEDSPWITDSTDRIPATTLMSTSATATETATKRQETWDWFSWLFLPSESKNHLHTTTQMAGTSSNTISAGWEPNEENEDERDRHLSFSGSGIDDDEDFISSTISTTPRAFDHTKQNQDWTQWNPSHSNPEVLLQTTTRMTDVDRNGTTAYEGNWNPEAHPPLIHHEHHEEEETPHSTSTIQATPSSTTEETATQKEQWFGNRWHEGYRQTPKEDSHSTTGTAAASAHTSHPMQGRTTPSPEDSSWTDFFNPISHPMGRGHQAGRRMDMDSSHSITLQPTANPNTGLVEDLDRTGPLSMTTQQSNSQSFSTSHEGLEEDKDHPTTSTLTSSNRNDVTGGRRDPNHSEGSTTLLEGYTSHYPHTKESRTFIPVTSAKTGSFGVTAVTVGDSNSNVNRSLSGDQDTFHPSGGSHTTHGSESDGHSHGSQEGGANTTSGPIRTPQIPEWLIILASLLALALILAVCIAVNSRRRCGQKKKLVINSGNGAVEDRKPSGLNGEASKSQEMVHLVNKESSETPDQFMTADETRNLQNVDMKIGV
UniProt P98066, residues 18-277: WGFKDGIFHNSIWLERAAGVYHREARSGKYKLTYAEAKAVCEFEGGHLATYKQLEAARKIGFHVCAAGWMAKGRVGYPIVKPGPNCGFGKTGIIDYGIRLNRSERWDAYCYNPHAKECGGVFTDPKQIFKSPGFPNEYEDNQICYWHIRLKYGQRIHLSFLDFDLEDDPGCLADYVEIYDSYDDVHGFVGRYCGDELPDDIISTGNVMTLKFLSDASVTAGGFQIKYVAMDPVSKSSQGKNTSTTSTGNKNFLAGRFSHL

The target in experiment [1] is CD44 (human (endogenous in CRC cells HCT116, DLD1)) (UniProt P16070). Put plainly: co-IP; co-immunoprecipitation of TSG-6 and CD44 from CRC cells; bait, antibody and buffer not told in the main text (methods in the Supplementary Information).
For experiment [2] the target is unchanged. Put plainly: co-IP; co-immunoprecipitation of CD44 and EGFR from CRC cells transiently transfected with control vector or TSG-6 overexpressing plasmid; bait, antibody and buffer not told in the main text.

These are yes or no findings as the source states them, for the method shown. Binding seen in cells or lysates may run through a third protein. Some entries that bind do so weakly or less than the wild type.

As for “Tumor necrosis factor α stimulated gene 6 (TSG-6) (from UniProt P98066 18-277)”, the binding entry in experiment [1] is on record as “binds”.
Consider “EGFR (from UniProt P00533 25-1210) (receptor)”, for which the binding result in experiment [2] is “binds”.
